From the supplement of paper PMC12067093, “Discovery and optimisation of a covalent ligand for TRIM25 and its application to targeted protein ubiquitination” (Chemical Science, 2025)
The other results are listed elsewhere or left out.

Chains of the proteins cited; added tags and fusions are not shown. Lines headed by an entry give the natural chain unless they say otherwise; changes in a name come on top.
UniProt O00308: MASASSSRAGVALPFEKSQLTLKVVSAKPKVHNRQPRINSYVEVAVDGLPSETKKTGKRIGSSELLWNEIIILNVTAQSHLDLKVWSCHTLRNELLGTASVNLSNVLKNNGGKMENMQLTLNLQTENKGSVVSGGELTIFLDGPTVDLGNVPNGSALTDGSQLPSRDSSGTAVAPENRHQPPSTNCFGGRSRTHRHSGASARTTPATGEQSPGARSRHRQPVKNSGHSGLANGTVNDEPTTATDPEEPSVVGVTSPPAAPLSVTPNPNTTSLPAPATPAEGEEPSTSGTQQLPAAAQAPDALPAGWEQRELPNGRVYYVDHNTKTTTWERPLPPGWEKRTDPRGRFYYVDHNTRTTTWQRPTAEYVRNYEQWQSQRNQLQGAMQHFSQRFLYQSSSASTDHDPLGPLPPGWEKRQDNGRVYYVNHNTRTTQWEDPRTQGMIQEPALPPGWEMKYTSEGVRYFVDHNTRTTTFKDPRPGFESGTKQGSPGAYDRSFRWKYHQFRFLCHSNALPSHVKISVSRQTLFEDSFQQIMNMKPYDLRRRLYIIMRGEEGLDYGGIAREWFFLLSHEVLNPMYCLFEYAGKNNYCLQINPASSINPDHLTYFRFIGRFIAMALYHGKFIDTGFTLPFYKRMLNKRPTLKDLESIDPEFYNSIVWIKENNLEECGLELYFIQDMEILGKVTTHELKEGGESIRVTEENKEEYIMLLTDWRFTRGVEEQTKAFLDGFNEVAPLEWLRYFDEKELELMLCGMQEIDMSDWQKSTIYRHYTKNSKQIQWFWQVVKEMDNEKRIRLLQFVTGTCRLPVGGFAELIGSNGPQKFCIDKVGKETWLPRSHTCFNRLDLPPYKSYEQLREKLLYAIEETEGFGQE
UniProt Q9Y4P8: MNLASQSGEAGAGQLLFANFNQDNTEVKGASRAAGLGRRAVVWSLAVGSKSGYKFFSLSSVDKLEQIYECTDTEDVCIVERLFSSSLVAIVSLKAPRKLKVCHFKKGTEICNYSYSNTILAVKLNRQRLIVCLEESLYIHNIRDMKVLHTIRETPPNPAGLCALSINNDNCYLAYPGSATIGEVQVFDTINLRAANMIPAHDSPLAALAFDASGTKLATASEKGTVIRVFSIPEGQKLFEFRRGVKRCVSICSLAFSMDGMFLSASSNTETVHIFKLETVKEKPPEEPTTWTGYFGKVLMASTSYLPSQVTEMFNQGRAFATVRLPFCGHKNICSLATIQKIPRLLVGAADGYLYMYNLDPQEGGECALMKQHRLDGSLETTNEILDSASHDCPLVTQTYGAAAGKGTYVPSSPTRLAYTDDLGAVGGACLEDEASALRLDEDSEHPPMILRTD
UniProt O75717: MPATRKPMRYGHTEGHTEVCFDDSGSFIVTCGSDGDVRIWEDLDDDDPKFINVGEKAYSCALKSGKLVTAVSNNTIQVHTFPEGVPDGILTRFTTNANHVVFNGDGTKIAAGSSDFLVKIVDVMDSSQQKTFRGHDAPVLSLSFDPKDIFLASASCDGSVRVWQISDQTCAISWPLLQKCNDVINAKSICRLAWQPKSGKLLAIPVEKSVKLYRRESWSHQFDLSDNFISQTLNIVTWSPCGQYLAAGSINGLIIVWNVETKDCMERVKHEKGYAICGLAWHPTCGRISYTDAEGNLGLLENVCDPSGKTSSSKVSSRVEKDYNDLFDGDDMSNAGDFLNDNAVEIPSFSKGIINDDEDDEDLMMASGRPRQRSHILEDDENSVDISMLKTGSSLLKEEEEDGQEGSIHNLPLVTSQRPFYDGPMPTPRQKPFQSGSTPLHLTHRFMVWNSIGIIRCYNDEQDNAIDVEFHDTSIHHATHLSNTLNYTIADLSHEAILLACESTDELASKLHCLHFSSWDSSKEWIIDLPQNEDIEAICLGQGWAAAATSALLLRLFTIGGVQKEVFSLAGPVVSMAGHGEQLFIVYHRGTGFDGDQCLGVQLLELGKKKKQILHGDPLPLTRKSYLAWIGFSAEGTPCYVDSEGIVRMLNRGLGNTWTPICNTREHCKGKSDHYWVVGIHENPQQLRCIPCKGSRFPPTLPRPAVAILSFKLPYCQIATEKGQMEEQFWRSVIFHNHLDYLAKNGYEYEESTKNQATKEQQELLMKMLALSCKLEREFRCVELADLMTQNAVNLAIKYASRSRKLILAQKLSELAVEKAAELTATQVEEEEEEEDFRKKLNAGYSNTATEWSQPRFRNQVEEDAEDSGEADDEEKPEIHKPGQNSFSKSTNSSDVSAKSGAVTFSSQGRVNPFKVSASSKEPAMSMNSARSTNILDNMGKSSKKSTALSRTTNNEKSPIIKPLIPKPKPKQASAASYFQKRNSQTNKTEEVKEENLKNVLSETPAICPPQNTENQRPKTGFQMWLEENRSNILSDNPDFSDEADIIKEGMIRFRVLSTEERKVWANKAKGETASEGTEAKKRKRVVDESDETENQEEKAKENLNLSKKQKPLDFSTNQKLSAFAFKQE
UniProt Q9NNW5: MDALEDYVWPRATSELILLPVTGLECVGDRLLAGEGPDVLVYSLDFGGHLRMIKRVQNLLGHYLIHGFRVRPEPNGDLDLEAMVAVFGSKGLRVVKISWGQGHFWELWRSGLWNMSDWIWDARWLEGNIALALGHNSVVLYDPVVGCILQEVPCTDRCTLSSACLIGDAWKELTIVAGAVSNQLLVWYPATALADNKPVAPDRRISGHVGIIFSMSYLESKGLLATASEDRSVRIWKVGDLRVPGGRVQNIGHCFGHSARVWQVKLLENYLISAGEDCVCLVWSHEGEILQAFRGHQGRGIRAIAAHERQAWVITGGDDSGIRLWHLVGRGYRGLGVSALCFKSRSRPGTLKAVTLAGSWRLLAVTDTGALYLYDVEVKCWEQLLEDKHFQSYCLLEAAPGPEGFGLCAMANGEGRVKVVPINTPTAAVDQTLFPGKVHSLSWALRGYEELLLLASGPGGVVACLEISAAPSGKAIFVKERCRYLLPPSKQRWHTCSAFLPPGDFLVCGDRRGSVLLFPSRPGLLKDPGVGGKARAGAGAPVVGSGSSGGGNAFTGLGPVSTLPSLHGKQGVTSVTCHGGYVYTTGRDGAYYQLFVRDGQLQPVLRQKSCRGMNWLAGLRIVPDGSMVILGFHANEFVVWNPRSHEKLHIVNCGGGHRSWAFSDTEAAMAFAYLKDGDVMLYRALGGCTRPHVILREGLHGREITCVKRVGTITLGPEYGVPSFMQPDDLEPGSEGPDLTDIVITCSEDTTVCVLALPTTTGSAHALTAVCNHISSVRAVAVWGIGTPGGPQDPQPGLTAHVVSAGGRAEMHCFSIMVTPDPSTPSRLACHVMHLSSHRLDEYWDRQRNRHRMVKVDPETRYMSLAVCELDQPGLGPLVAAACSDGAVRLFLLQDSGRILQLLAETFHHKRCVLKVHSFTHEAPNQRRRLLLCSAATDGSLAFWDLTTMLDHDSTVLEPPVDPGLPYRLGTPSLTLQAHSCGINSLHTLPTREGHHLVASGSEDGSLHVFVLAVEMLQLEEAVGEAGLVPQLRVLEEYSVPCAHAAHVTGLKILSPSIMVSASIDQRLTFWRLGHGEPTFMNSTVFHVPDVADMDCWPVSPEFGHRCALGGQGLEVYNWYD
UniProt Q9NQW7: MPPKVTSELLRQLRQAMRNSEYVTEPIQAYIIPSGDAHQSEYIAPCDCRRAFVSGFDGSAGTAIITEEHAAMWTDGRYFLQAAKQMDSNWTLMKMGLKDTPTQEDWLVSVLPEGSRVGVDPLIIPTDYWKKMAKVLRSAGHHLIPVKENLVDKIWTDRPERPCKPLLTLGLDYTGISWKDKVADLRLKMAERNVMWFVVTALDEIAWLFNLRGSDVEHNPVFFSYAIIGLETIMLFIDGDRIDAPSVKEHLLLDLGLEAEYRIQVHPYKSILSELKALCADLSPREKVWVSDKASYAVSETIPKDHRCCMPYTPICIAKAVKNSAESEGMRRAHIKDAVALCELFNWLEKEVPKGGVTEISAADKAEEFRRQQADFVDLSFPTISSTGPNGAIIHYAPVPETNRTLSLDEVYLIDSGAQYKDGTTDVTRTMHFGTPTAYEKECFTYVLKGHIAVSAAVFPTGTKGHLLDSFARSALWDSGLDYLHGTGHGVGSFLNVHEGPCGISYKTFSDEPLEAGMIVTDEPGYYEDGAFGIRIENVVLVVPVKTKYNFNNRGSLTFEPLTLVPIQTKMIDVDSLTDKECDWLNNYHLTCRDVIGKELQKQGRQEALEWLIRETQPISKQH
UniProt Q9BZH6: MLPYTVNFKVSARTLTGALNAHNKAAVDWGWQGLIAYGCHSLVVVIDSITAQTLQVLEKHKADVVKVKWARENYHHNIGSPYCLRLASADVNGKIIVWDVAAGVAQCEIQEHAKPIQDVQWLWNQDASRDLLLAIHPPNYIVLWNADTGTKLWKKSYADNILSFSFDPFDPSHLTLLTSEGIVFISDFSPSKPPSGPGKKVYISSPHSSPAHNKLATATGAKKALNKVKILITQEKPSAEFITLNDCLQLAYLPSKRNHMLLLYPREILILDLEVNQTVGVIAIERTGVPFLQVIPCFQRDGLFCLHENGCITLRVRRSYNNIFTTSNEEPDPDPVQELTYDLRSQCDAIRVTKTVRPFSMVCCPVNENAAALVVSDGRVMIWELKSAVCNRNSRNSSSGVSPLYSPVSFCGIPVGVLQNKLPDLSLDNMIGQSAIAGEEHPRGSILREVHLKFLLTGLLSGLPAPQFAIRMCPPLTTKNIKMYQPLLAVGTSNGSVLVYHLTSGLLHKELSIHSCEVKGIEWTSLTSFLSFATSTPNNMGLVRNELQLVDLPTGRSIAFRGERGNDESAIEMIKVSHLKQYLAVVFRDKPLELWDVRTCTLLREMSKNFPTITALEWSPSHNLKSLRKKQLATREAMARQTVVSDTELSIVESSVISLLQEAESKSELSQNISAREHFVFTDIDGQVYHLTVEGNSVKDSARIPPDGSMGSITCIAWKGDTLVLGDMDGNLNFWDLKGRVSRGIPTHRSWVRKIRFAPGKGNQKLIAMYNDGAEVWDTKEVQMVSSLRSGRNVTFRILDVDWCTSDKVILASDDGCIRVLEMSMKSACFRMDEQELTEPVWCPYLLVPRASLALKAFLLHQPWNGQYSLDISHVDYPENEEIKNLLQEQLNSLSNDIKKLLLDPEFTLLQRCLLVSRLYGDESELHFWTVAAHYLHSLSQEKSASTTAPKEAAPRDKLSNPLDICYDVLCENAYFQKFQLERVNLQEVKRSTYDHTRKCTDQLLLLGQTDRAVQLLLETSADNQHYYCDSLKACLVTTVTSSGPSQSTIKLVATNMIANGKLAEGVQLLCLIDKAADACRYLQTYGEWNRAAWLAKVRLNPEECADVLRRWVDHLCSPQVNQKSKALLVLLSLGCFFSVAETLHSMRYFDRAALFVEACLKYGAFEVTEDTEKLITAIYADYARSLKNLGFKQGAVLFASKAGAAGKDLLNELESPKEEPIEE
UniProt Q8IWB7: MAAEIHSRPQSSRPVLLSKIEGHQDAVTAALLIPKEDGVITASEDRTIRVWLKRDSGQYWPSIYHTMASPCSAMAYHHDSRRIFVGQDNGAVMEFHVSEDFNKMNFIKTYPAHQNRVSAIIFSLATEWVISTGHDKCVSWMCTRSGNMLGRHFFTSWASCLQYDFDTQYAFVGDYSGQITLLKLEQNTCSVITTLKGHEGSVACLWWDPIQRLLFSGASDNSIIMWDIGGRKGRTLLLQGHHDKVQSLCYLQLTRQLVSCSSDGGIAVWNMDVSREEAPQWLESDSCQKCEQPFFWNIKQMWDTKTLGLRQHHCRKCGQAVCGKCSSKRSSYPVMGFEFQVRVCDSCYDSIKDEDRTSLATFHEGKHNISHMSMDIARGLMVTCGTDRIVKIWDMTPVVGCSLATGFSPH
UniProt P98170, whole entry, looked up: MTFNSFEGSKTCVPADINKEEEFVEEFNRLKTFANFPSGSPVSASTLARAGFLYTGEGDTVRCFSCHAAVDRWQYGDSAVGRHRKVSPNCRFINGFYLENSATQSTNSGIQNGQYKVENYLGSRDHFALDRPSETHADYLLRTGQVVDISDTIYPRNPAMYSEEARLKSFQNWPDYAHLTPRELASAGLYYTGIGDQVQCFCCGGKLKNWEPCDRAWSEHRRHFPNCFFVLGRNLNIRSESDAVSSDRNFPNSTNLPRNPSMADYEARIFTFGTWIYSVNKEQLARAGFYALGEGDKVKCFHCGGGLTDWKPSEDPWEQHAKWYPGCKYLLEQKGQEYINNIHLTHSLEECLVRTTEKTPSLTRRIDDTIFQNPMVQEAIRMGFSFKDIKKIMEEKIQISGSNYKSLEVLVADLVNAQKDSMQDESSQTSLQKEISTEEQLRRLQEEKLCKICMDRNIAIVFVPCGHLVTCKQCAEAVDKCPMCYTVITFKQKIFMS

Compound: Cc1cc(ccc1-c1ccccc1)C(=O)N1CCCN(CC1)C(=O)CCl [compound 10]
Assay: probe-labelled cysteine peptide fold change vs DMSO (competition) (log2 fold change); higher = less target engagement (more negative = stronger competition)
Details: THP-1, incubation time: 4 h
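Further: competitive profiling in live THP-1 cells: cysteine peptides tagged with an iodoacetamide desthiobiotin (IA-DTB) probe, intensity after compound treatment relative to DMSO-treated cells.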

Row | Target | probe-labelled cysteine peptide fold change (10 µM) | probe-labelled cysteine peptide fold change (50 µM)
1 | XPA_P23025_126+129_EFMDSYLMNHFDLPTCDNCR (UniProt P23025) | 0.318 | -0.612
2 | WWP2_O00308_186_HQPPSTNCFGGR (UniProt O00308) | -0.217 | -0.439
3 | WIPI2_Q9Y4P8_334_NICSLATIQK (UniProt Q9Y4P8) | -0.051 | -0.275
4 | WDHD1_O75717_1008_NVLSETPAICPPQNTENQRPK (UniProt O75717) | -0.0327 | -0.0281
5 | WDR6_Q9NNW5_254_VQNIGHCFGHSAR (UniProt Q9NNW5) | 0.0488 | -0.072
6 | XPNPEP1_Q9NQW7_592_ECDWLNNYHLTCR (UniProt Q9NQW7) | -0.00678 | -0.0935
7 | WDHD1_O75717_285_GYAICGLAWHPTCGR (UniProt O75717) | -0.0417 | -0.0589
8 | WDR55_Q9H6Y2_5_TCEERPAEDGSDEEDPDSMEAPTR (UniProt Q9H6Y2) | -0.668 | -1.19
9 | WDR92_Q96MX6_184_VVCAGYDNGDIK (UniProt Q96MX6) | 0.0428 | 0.188
10 | WDR3_Q9UNX4_70+72_QEVTCLCPSPDGLHLAVGYEDGSIR (UniProt Q9UNX4) | 0.093 | 0.237
11 | WDHD1_O75717_781_CVELADLMTQNAVNLAIK (UniProt O75717) | 0.0763 | 0.0772
12 | WIZ_O95785_1399_TSHSSTEACCELCGLYFENR (UniProt O95785) | 0.339 | 0.377
13 | WASHC5_Q12768_838_MTCHIDQLNTWYDMK (UniProt Q12768) | 0.028 | -0.0245
14 | WSB1_Q9Y6I7_66_LVPWSQCLQNFLLHGTK (UniProt Q9Y6I7) | -0.2 | 0.148
15 | WDR70_Q9NW82_338_KVIPTTCTYSR (UniProt Q9NW82) | 0.603 | -0.0979
16 | WDR81_Q562E7_215_GSPACPSLLR (UniProt Q562E7) | -0.185 | -0.529
17 | WDR11_Q9BZH6_411_NSSSGVSPLYSPVSFCGIPVGVLQNK (UniProt Q9BZH6) | 0.177 | 0.0096
18 | WDFY1_Q8IWB7_344_VCDSCYDSIKDEDR (UniProt Q8IWB7) | -0.175 | -0.255

Some of the entries above, set out differently.

| Row | Target | probe-labelled cysteine peptide fold change (10 µM) | probe-labelled cysteine peptide fold change (50 µM) |
| --- | --- | --- | --- |
| 2 | WWP2_O00308_186_HQPPSTNCFGGR (UniProt O00308) | -0.217 | -0.439 |
| 3 | WIPI2_Q9Y4P8_334_NICSLATIQK (UniProt Q9Y4P8) | -0.051 | -0.275 |
| 4 | WDHD1_O75717_1008_NVLSETPAICPPQNTENQRPK (UniProt O75717) | -0.0327 | -0.0281 |
| 5 | WDR6_Q9NNW5_254_VQNIGHCFGHSAR (UniProt Q9NNW5) | 0.0488 | -0.072 |
| 6 | XPNPEP1_Q9NQW7_592_ECDWLNNYHLTCR (UniProt Q9NQW7) | -0.00678 | -0.0935 |
| 7 | WDHD1_O75717_285_GYAICGLAWHPTCGR (UniProt O75717) | -0.0417 | -0.0589 |
| 8 | WDR55_Q9H6Y2_5_TCEERPAEDGSDEEDPDSMEAPTR (UniProt Q9H6Y2) | -0.668 | -1.19 |

(list continues)

Row | Target | probe-labelled cysteine peptide fold change (10 µM) | probe-labelled cysteine peptide fold change (50 µM)
19 | WDR26_Q9H7D7_338_LDNNLDSVSLLIDHVCSR (UniProt Q9H7D7) | 0.0508 | 0.0526
20 | WDR43_Q15061_315_KPLTSNCTIQIATPGK (UniProt Q15061) | -0.00294 | -0.0246
21 | WDR60_Q8WVS4_1047_WAAPEVDECNR (UniProt Q8WVS4) | -0.304 | -0.717
22 | WDR26_Q9H7D7_493_VQCLWCLSDGK (UniProt Q9H7D7) | 0.104 | -0.0773
23 | XIAP_P98170_474_QCAEAVDK (UniProt P98170) | -0.0288 | -0.307
24 | WDR46_O15213_271_WLHIYDNQGIELHCIR (UniProt O15213) | 0.0322 | 0.087
25 | XIAP_P98170_90_KVSPNCR (UniProt P98170) | -0.159 | -0.396
26 | XAB2_Q9HCS7_98_CVTDPAYEDVNNCHER (UniProt Q9HCS7) | -0.0369 | -0.419
27 | WDR59_Q6PJI9_163_NANCLATSHDGDVR (UniProt Q6PJI9) | -0.0344 | 0.132
28 | WDR1_O75083_194_FVNCVR (UniProt O75083) | 0.0979 | -0.0458
29 | WDR11_Q9BZH6_1071_LAEGVQLLCLIDK (UniProt Q9BZH6) | 0.0605 | -0.0475
30 | WDFY1_Q8IWB7_189_LEQNTCSVITTLK (UniProt Q8IWB7) | 0.557 | 0.736
31 | WDR75_Q8IWA0_12_CGGSELNFR (UniProt Q8IWA0) | -0.0904 | 0.022
32 | WDR7_Q9Y4E6_109_LACTHTGIQFYQFSVGNQR (UniProt Q9Y4E6) | 0.162 | -0.152
33 | WBP4_O75554_13_KFCDYCK (UniProt O75554) | 0.0364 | -0.466
34 | WRAP53_Q9BUR4_512_HVHLECR (UniProt Q9BUR4) | 0.0756 | 0.0138
35 | WDR55_Q9H6Y2_306_VVGSVGQHTGEPVEELALSHCGR (UniProt Q9H6Y2) | 0.0947 | -0.177
